Laboratory results taken from publication PMC8204342, “Dual arginine recognition of LRRK2 phosphorylated Rab GTPases” (Biophysical Journal, 2021).
Positions count from the first letter of the chain named. No constants are given. Whether binding was seen depends on the method and setting. Binding seen in cells or lysates may run through a third protein. Some entries that bind do so weakly or less than the wild type. Sequences can lack the tags named with a protein.

Sequences of proteins named here, by UniProt entry; tags and fusion partners are left off. A change or cut given only in a name is not applied to a line headed by its entry.
UniProt P61006: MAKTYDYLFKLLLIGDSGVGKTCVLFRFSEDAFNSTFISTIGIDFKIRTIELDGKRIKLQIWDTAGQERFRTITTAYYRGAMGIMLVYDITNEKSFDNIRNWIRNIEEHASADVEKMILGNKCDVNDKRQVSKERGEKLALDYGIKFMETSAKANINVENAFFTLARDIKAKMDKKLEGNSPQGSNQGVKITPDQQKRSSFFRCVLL

Columns and labels:
Test in all cases: co-IP; HEK293 cells transfected with Flag-LRRK2 Y1699C, HA-Rab8a and RILPL2-GFP; +/- 500 nM MLi-2 for 90 min; RILPL2-GFP precipitated with GFP binder Sepharose, immunoblot
[1] = molecular target: T1, RILPL2-GFP D124A, full length (human) (UniProt Q969X0)
T1 sequence: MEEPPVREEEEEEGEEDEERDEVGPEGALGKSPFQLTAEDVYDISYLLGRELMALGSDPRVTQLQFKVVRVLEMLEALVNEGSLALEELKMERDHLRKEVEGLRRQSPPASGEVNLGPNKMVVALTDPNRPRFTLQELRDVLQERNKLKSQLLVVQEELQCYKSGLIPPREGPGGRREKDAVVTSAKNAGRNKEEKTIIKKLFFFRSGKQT

[2] = molecular target: T2, RILPL2-GFP D127A, full length (human) (UniProt Q969X0)
T2 sequence: T1 sequence with A124D, D127A

[3] = molecular target: T3, RILPL2-GFP D127N, full length (human) (UniProt Q969X0)
T3 sequence: T1 sequence with A124D, D127N

[4] = molecular target: T4, RILPL2-GFP WT, full length (human) (UniProt Q969X0)
T4 sequence: T1 sequence with A124D

binding [1]: binds | binding [2]: binds | binding [3]: binds | binding [4]: binds
Substance: HA-Rab8a WT phosphorylated at T72 in HEK293 cells co-expressing Flag-LRRK2 Y1699C (from UniProt P61006 1-207)
